PubChem BioAssay AID1259290, Sanger Institute, 2017
The whole screen tested 794 reagents; below is a part drawn at random. 9 of all reagents (1.1%) were called active. 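Calls rest on knock-down alone, not drug synergy; synergy above 0.15 was grouped apart and does not affect calls.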 Viability is capped at 1. Not all columns of the deposit are shown. Reagent sequences are not shown. Not stated in the record: the amount of reagent, the time to read-out.

- Aim: 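siRNA screen across the kinome seeking synthetic lethal partners for BYL719, cetuximab or trametinib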 (primary screen)
- System: human SNUC1 colorectal cancer cells
- Reagent: siRNA pool against human genes
- Conditions: anchor drugs BYL719 1 µM, cetuximab 5 µg/ml or trametinib 10 nM, or DMSO vehicle alone
- Detection: 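Viability averaged over replicates and scaled to non-targeting siRNA, robust z-score with no drug, and synergy scores by drug for BYL719, cetuximab and trametinib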
- Scale: viability z-score, siRNA alone: higher = more viable cells; low values mean essential gene; viability vs control, siRNA alone: higher = more viable cells
- Hit rule: 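a knock-down without drug scoring a robust z under -3 counts as essential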
- Calls: active = essential: knock-down alone cut viability (z below -3); inactive = no clear viability loss with knock-down alone

Knock-down of PHKA1 came out at: viability z-score, siRNA alone 0.936; viability vs control, siRNA alone 1; inactive.
Silencing of SIK3 came out at: viability z-score, siRNA alone 0.792; viability vs control, siRNA alone 0.987; inactive.
PACSIN1 showed viability z-score, siRNA alone -0.0327; viability vs control, siRNA alone 0.913; inactive.
Against CDK9, the values are viability z-score, siRNA alone -0.197; viability vs control, siRNA alone 0.898; inactive.
For STK32C the deposit lists viability z-score, siRNA alone 0.936; viability vs control, siRNA alone 1; inactive.
FN1 gave viability z-score, siRNA alone 0.55; viability vs control, siRNA alone 0.965; inactive.
Depletion of CLK1 gave: viability z-score, siRNA alone 0.936; viability vs control, siRNA alone 1; inactive.
STRADA scored viability z-score, siRNA alone 0.936; viability vs control, siRNA alone 1; inactive.
DLG4 scored viability z-score, siRNA alone 0.936; viability vs control, siRNA alone 1; inactive.
Against MAPK12, the values are viability z-score, siRNA alone -0.0201; viability vs control, siRNA alone 0.914; inactive.
HSPB8 gave viability z-score, siRNA alone 0.875; viability vs control, siRNA alone 0.995; inactive.
After knock-down of RET, the screen gave viability z-score, siRNA alone 0.936; viability vs control, siRNA alone 1; inactive.
CAMK2A gave viability z-score, siRNA alone -0.995; viability vs control, siRNA alone 0.826; inactive.
Depletion of PFKFB2 came out at: viability z-score, siRNA alone 0.205; viability vs control, siRNA alone 0.934; inactive.
Knock-down of PHKB gave: viability z-score, siRNA alone -0.0818; viability vs control, siRNA alone 0.908; inactive.
Against MAP3K10, the values are viability z-score, siRNA alone 0.464; viability vs control, siRNA alone 0.957; inactive.
FGFR2 showed viability z-score, siRNA alone -1.02; viability vs control, siRNA alone 0.824; inactive.
CDKL3 scored viability z-score, siRNA alone 0.0336; viability vs control, siRNA alone 0.919; inactive.
With knock-down of PGK1, the record shows viability z-score, siRNA alone 0.853; viability vs control, siRNA alone 0.992; inactive.
Against SRGAP3, the values are viability z-score, siRNA alone 0.585; viability vs control, siRNA alone 0.968; inactive.
With knock-down of FER, the screen gave viability z-score, siRNA alone -0.109; viability vs control, siRNA alone 0.906; inactive.
After knock-down of GUCY2F, the record shows viability z-score, siRNA alone 0.936; viability vs control, siRNA alone 1; inactive.
After knock-down of NME5, the record shows viability z-score, siRNA alone -1.82; viability vs control, siRNA alone 0.752; inactive.
After knock-down of TLK2, the record shows viability z-score, siRNA alone 0.936; viability vs control, siRNA alone 1; inactive.
Depletion of MYLK2 came out at: viability z-score, siRNA alone 0.922; viability vs control, siRNA alone 0.999; inactive.
Depletion of NEK1 resulted in: viability z-score, siRNA alone -0.00377; viability vs control, siRNA alone 0.915; inactive.
With knock-down of GRK7, the record shows viability z-score, siRNA alone -1.67; viability vs control, siRNA alone 0.765; inactive.
Against PNKP, the values are viability z-score, siRNA alone 0.936; viability vs control, siRNA alone 1; inactive.

In a second layout: results already given.
{"Target gene": "CAMK2A", "viability z-score, siRNA alone": -0.995, "viability vs control, siRNA alone": 0.826, "activity call": "inactive"}
{"Target gene": "PFKFB2", "viability z-score, siRNA alone": 0.205, "viability vs control, siRNA alone": 0.934, "activity call": "inactive"}
